Laboratory results published in patent publication US20230381162A1, “TREATMENTS OF ANGIOEDEMA” (KALVISTA PHARMACEUTICALS LIMITED, priority 2020, published 2023).
At least one compound was matched to its structure with a doubt left.

Tests used:
[1] = system: plasma prekallikrein cleavage; assay: Phase 1 study: ex vivo DXS-stimulated plasma prekallikrein cleavage (Wes); format: in vivo, human; details: 600 mg capsules, up to 12 hrs post-dose
HK cleavage = assay: Phase 1 study: ex vivo DXS-stimulated HK cleavage, capillary-based immunoassay (Wes); format: in vivo, human; details: 600 mg capsules, up to 12 hrs post-dose
[2] = system: angioedema attacks in adult subjects with hereditary angioedema type I or II; assay: Phase 2 study Part 2: on-demand treatment of HAE attacks, efficacy; format: in vivo, human; details: 600 mg
Procedure: This was a phase 2, two-part, two-sequence, two-period (2×2) cross-over clinical trial. Subjects with HAE type I or II were recruited through HAE treatment centres in Europe and US.
In Part 2, the subjects were randomized 1:1 to 2 treatment sequences. This part of the study was conducted away from the clinic or hospital. In Sequence 1 (study arm 1) subjects received a single dose of 600 mg of the compound to treat the first eligible HAE attack. Following resolution of this attack, subjects received a single dose of placebo to treat the second eligible HAE attack.
In Sequence 2 (study arm 2) subjects received a single dose of placebo to treat the first eligible HAE attack. Following resolution of this attack, subjects received a single dose of 600 mg of the compound to treat the second eligible HAE attack. […]
Time to use of conventional attack treatment was assessed. […]
Overall HAE attack severity was assessed on a 5-point Likert scale (5LS) scored as none, mild, moderate, severe and very severe.
Change in HAE attack severity was assessed using a 7-point transition question (7TQ), scored as Much better/Better/A little better/No change/A little worse/Worse/Much worse.
The type of HAE attack symptoms (abdominal pain, skin pain and skin swelling) was each assessed on a 100 mm visual analogue scale (VAS) anchored at 0 (none) and 100 (very severe). […]

HK cleavage by PKa = assay: Protection of HK from PKa-mediated cleavage in DXS-stimulated HAE and control plasma (in vitro); format: biochemical, human

With COCc1nn(Cc2ccc(Cn3ccccc3=O)cc2)cc1C(=O)NCc1nccc(OC)c1F [compound of Formula A, N-[(3-fluoro-4-methoxypyridin-2-yl)methyl]-3-(methoxymethyl)-1-({4-[(2-oxopyridin-1-yl)methyl]phenyl}methyl)pyrazole-4-carboxamide] the “effect on PPK cleavage” value [1] was “reduces PPK cleavage”, the “effect on HK cleavage” value (HK cleavage) was “reduces HK cleavage” and the “severity of the HAE attack, composite VAS score” value ([2]; over 12 hours and 24 hours) was “reduced the severity of the HAE attack”. For the same compound, the “number of attacks stabilized or improved by PGI-S (5LS) or use of rescue” value ([2]; within 12 hours) was “significantly increased the number of attacks stabilized or improved”, the “protection against HK cleavage” value (HK cleavage by PKa; HAE plasma stimulated with dextran sulfate) was “dose dependent protection against HK cleavage” and the “protection against HK cleavage” value (HK cleavage by PKa; healthy control plasma stimulated with dextran sulfate) was “dose dependent protection against HK cleavage”.
